Assay results reported in PubChem BioAssay AID504834 (National Center for Advancing Translational Sciences (NCATS), 2011).
In all, about 320,000 compounds went through this assay and about 22,000 (6.9%) were called active. Inconclusive means that the source gave no clear call. Such entries were picked first, then a sample of the others. Calls follow the shape of the dose curve; as a rule, active = well fitted inhibition curve with a large enough effect; inconclusive = small, poorly fitted or top-dose-only effect, or another doubt; inactive = no such curve, though single readings can be large or run the other way. A potency beside an inconclusive call is a rough fit, not a confirmed value.

Experiment: Primary qHTS for delayed death inhibitors of the malarial parasite plastid, 96 hour incubation
Conditions: P. falciparum luciferase reporter growth; series mostly up to 28.7 µM
Outline: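 Plates of compound plus infected erythrocytes (2% hematocrit, 0.05% parasitemia final) incubate 96 hours, 37 C, 5% CO2. Detection reagent added; reduced luminescence from the parasites' luciferase reporter flags inhibition.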
Potency is read from the fitted curve at half-maximal effect.

SMILES | Potency
CC1(C)C=C(c2ccc(O)cc2)CC(C)(C)N1 | active: 13.1 µM
c1ccc(Cn2ncc3c(N4CCN(C(c5ccccc5)c5ccccc5)CC4)ncnc32)cc1 | inactive
Cc1cccc(N2CCN(S(=O)(=O)c3c(C)nc4scc(C)n4c3=O)CC2)c1C | inconclusive: 13.1 µM [inhibitor, partial curve, poor fit]
COc1ccccc1-c1nnc(SCC(=O)N2CCCCC2)o1 | inconclusive: 11.7 µM [inhibitor, single point]
O=C1CN(c2ccccc2)C(=S)N1C(=O)c1ccc(Br)cc1 | inconclusive: 4.65 µM [inhibitor, partial curve, poor fit]
O=C(c1ccc2c3c(cccc13)CC2)C1CCCN(Cc2ccncc2)C1 (centres undefined) | inconclusive: 18.5 µM [inhibitor, single point]
COc1ccc(Br)cc1CNC(=O)C1CCN(S(=O)(=O)N2CCC(C)CC2)CC1 | active: 11.7 µM
COCCCNC(=O)c1c(NC(=O)c2cccs2)sc2c1CCCC2 | inconclusive: 9.28 µM [inhibitor, partial curve]
CNCCOc1ccccc1OC(C)C | active: 10.4 µM
COc1cccc(C2C3=C(CCCC3=O)Nc3nc(-c4cc(OC)c(OC)c(OC)c4)nn32)c1 (centres undefined) | inconclusive: 0.465 µM [inhibitor, full curve, poor fit]
COc1cc(/C=N/N=C2/C(=O)Nc3ccccc32)ccc1O | inconclusive: 18.5 µM [inhibitor, single point]
CCCCCc1cc(=O)oc2c(C(CCN3CCCCC3)c3ccc(OC)cc3)c(OC)cc(OC)c12 (centres undefined) | active: 2.62 µM
Cc1nc(-c2ccc(F)cc2)c(CC(=O)N2CCN(S(=O)(=O)c3ccc(F)cc3)CC2)s1 | active: 13.1 µM
Cc1noc(C)c1S(=O)(=O)N(CC(=O)NC(C)c1ccccc1)c1ccc(C(C)C)cc1 (centres undefined) | inconclusive: 13.1 µM [inhibitor, single point]
CCCCN1CC(O)C(O)C(O)C1CO (centres undefined) | inconclusive: 12 µM [inhibitor, partial curve, poor fit]
Fc1ccc(N2CCN(Cc3cn[nH]c3-c3ccccc3)CC2)cc1 | inactive
CCOC(=O)C1(CC2CCCCO2)CCN(C(=O)Nc2ccc(SC)cc2)CC1 (centres undefined) | inconclusive: 13.1 µM [inhibitor, single point]
CS(=O)(=O)N(Cc1ccc(C(=O)NCCSc2ccccn2)cc1)c1ccccc1 | inconclusive: 18.5 µM [inhibitor, single point]
Cc1ccc(NC(=O)c2c(C(F)(F)F)nn(C)c2SCc2ccc(Cl)cc2)cc1C | inconclusive: 16.5 µM [inhibitor, partial curve, poor fit]

Shown field by field: two of the compounds above.
O=C(c1ccc2c3c(cccc13)CC2)C1CCCN(Cc2ccncc2)C1 (centres undefined)
  Potency: inconclusive: 18.5 µM [inhibitor, single point]
CCCCN1CC(O)C(O)C(O)C1CO (centres undefined)
  Potency: inconclusive: 12 µM [inhibitor, partial curve, poor fit]
